Assay results taken from patent publication US20110098267A1, “TOPICAL FORMULATIONS FOR THE TREATMENT OF PSORIASIS” (Synta Pharmaceuticals Corporation, priority 2008, published 2011).
The name of at least one read-out is uncertain.

Test: API-excipient compatibility, 1 month at 40° C. and 60° C.
Type: physicochemical
Conditions: for % recovery of API: 1 month 60° C.; for % Recovery: 1 month 40° C.
Protocol: For the pre-formulation work Compound 50 was mixed with varying ratios of excipients commonly encountered in topical formulations.
The Compound 50 Pre-Formulation Studies began with the addition of each individual excipient to 500 mg of the Active Pharmaceutical Ingredient (API). Table I below explains the detail ratio between each excipient and API used for this study.
The samples, once prepared in scintillation vials, were kept at 40° C. and 60° C. for over one month. The samples were analyzed by the method (not validated) developed by the analytical support group.
The results in Tables III-V were analyzed with respect to Compound 50 standard to calculate % recovery of API in the presence of each excipient. […] Similar results in table V for samples 5-60° C., 6-60° C., 7-60° C., 8-60° C., 10-60° C., 17-60° C., and 18-60° C. were obtained which needs to be further analyzed.

With `Cc1cccc(/C=N/Nc2cc(N3CCOCC3)nc(OCCc3ccccn3)n2)c1` [Compound 50, N-(3-Methyl-benzylidene)-N′-[6-morpholin-4-yl-2-(2-pyridin-2-yl-ethoxy)-pyrimidin-4-yl]-hydrazine] the “% recovery of API” value (with Benzyl Alcohol (5:0.5), sample 1-60C) was 98.42%, the “% Recovery” value (with Benzyl Alcohol (drug:excipient 5:0.5), sample 1-40C) was 74.21% and the “% Recovery” value (with Cetostearyl Alcohol (5:5), sample 13-40C) was 167.72%. For the same compound, the “% recovery of API” value (with Cetostearyl Alcohol (5:5), sample 13-60C) was 0.15%, the “% Recovery” value (with Cremophor A6 (5:5), sample 14-40C) was 87.85% and the “% recovery of API” value (with Cremophor A6 (5:5), sample 14-60C) was 0%. The “% Recovery” value (with Cremophor A25 (5:5), sample 15-40C) was 80.13%, the “% recovery of API” value (with Cremophor A25 (5:5), sample 15-60C) was 22% and the “% Recovery” value (with Glyceryl Monooleate (5:5), sample 2-40C) was 46.35%. The “% recovery of API” value (with Glyceryl Monooleate (5:5), sample 2-60C) was 59.07%, the “% Recovery” value (with HPMC (5:1), sample 3-40C) was 76.63% and the “% recovery of API” value (with HPMC (5:1), sample 3-60C) was 75.88%. For the same compound, the “% Recovery” value (with Lutrol F127 (5:20), sample 12-40C) was 67.06%, the “% recovery of API” value (with Lutrol F127 (5:20), sample 12-60C) was 0.17% and the “% Recovery” value (with Methylparaben (5:0.02), sample 18-40C) was 77.77%. For the same compound, the “% recovery of API” value (with Methylparaben (5:0.02), sample 18-60C) was 53.99%, the “% Recovery” value (with Miglyol 812 (5:20), sample 11-40C) was 70.64% and the “% recovery of API” value (with Miglyol 812 (5:20), sample 11-60C) was 59%. The “% Recovery” value (with Mineral Oil (5:10), sample 16-40C) was 38.19%, the “% recovery of API” value (with Mineral Oil (5:10), sample 16-60C) was 54.52% and the “% Recovery” value (with PEG-300 (5:20), sample 5-40C) was 123.72%. For the same compound, the “% recovery of API” value (with PEG-300 (5:20), sample 5-60C) was 112.35%, the “% Recovery” value (with PEG-400 (5:20), sample 6-40C) was 125.98% and the “% recovery of API” value (with PEG-400 (5:20), sample 6-60C) was 104.35%. The “% Recovery” value (with PVP (5:10), sample 9-40C) was 84.16%, the “% recovery of API” value (with PVP (5:10), sample 9-60C) was 63.45% and the “% Recovery” value (with Polysorbate 80 (5:5), sample 7-40C) was 99.11%. The “% recovery of API” value (with Polysorbate 80 (5:5), sample 7-60C) was 105.71%, the “% Recovery” value (with Propylene Glycol (5:20), sample 8-40C) was 107.98% and the “% recovery of API” value (with Propylene Glycol (5:20), sample 8-60C) was 91.26%. For the same compound, the “% Recovery” value (with Propylparaben (5:0.18), sample 17-40C) was 64.66%, the “% recovery of API” value (with Propylparaben (5:0.18), sample 17-60C) was 137.72% and the “% Recovery” value (with Sorbitan Monooleate (5:5), sample 10-40C) was 20.78%. The “% recovery of API” value (with Sorbitan Monooleate (5:5), sample 10-60C) was 19.24% and the “% Recovery” value (with Transcutol (5:20), sample 19-40C) was 38.5%.
